# Data reported in the supplement of paper PMC12067093, “Discovery and optimisation of a covalent ligand for TRIM25 and its application to targeted protein ubiquitination” (Chemical Science, 2025).
# The other results are listed elsewhere or left out.
# Compound: Cc1cc(ccc1-c1ccccc1)C(=O)N1CCCN(CC1)C(=O)CCl [compound 10]
# Assay: probe-labelled cysteine peptide fold change vs DMSO (competition) (log2 fold change); higher = less target engagement (more negative = stronger competition)
# Conditions: THP-1, incubation time: 4 h
# 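Note: competitive profiling in live THP-1 cells: cysteine peptides tagged with an iodoacetamide desthiobiotin (IA-DTB) probe, intensity after compound treatment relative to DMSO-treated cells.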
Target,probe-labelled cysteine peptide fold change (10 µM),probe-labelled cysteine peptide fold change (50 µM)
IPO5_O00410_266_LCGDTSLNNMQR (UniProt O00410),-0.215,0.193
IRF2BP2_Q7Z5L9_16_QSCYLCDLPR (UniProt Q7Z5L9),0.118,-0.249
IRGQ_Q8WZA9_328_DWAQVQALLLPDAPLVCVR (UniProt Q8WZA9),-0.00857,0.00678
INTS14_Q96SY0_464_GVADMLERECTLLPETAHPDAAFQLTHAAQQLK (UniProt Q96SY0),0.0283,-0.313
ITGB2_P05107_481+483_NCECQTQGR (UniProt P05107),-0.124,-0.52
IQSEC1_Q6DN90_260_SLAESIDDALNCR (UniProt Q6DN90),-0.00351,-0.331
INTS9_Q9NV88_14_LYCLSGHPTLPCNVLK (UniProt Q9NV88),0.0888,0.164
ITPK1_Q13572_137_KIEAYMEDDRICSPPFMELTSLCGDDTMR (UniProt Q13572),0.268,-0.0984
IPO7_O95373_736_VLTGVAGEDAECHAAK (UniProt O95373),-0.0443,0.238
IRAK3_Q9Y616_5_AGNCGAR (UniProt Q9Y616),0.158,0.152
INTS6L_Q5JSJ4_745_NCSLSVDDQK (UniProt Q5JSJ4),-0.173,0.108
ISG20L2_Q9H9L3_184_MVAIDCEMVGTGPK (UniProt Q9H9L3),0.53,0.466
IQGAP1_P46940_57_RWMEACLGEDLPPTTELEEGLR (UniProt P46940),0.00789,0.0214
IRF2BP2_Q7Z5L9_65_RAHGCFPEGR (UniProt Q7Z5L9),-0.022,-0.22
ITGA5_P08648_192_ILEYAPCR (UniProt P08648),-0.0714,0.0714
INTS2_Q9H0H0_1186+1188_DTGSMDPDVQLCHCIER (UniProt Q9H0H0),0.151,-0.119
ITGB2_P05107_670_ERDSEGCWVAYTLEQQDGMDR (UniProt P05107),0.42,0.326
IPO5_O00410_750_GPEYLTQMWHFMCDALIK (UniProt O00410),0.397,0.43
INTS7_Q9NVH2_618_GIASLTAASTPLNPLSFQCEFVK (UniProt Q9NVH2),0.0028,0.287
IPO7_O95373_504_CLIDDR (UniProt O95373),0.17,0.185
INTS4_Q96HW7_44_SAALHIDLCK (UniProt Q96HW7),-0.0901,0.0949
INTS8_Q75QN2_42_KPCPDPAPVQLIVQFLEQASKPSVNEQNQVQPPPDNKR (UniProt Q75QN2),-0.241,0.143
INTS2_Q9H0H0_1186_DTGSMDPDVQLCHCIER (UniProt Q9H0H0),0.125,0.152
INTS3_Q68E01_498_EKFPEFCSSPSPPVEVK (UniProt Q68E01),0.0707,-0.359
IPO9_Q96P70_639_ELSQIEACQGPMQMR (UniProt Q96P70),0.0381,-0.0191
IPO5_O00410_986_FKPDCVNVEEVLPHWLSWLPLHEDK (UniProt O00410),0.126,0.482

# Some of the entries above, reformatted:
Target | probe-labelled cysteine peptide fold change (10 µM) | probe-labelled cysteine peptide fold change (50 µM)
ITPK1_Q13572_137_KIEAYMEDDRICSPPFMELTSLCGDDTMR (UniProt Q13572) | 0.268 | -0.0984
IPO7_O95373_736_VLTGVAGEDAECHAAK (UniProt O95373) | -0.0443 | 0.238
IRAK3_Q9Y616_5_AGNCGAR (UniProt Q9Y616) | 0.158 | 0.152
INTS6L_Q5JSJ4_745_NCSLSVDDQK (UniProt Q5JSJ4) | -0.173 | 0.108
ISG20L2_Q9H9L3_184_MVAIDCEMVGTGPK (UniProt Q9H9L3) | 0.53 | 0.466
IQGAP1_P46940_57_RWMEACLGEDLPPTTELEEGLR (UniProt P46940) | 0.00789 | 0.0214
IRF2BP2_Q7Z5L9_65_RAHGCFPEGR (UniProt Q7Z5L9) | -0.022 | -0.22
ITGA5_P08648_192_ILEYAPCR (UniProt P08648) | -0.0714 | 0.0714
INTS2_Q9H0H0_1186+1188_DTGSMDPDVQLCHCIER (UniProt Q9H0H0) | 0.151 | -0.119
ITGB2_P05107_670_ERDSEGCWVAYTLEQQDGMDR (UniProt P05107) | 0.42 | 0.326
IPO5_O00410_750_GPEYLTQMWHFMCDALIK (UniProt O00410) | 0.397 | 0.43
INTS7_Q9NVH2_618_GIASLTAASTPLNPLSFQCEFVK (UniProt Q9NVH2) | 0.0028 | 0.287
IPO7_O95373_504_CLIDDR (UniProt O95373) | 0.17 | 0.185
INTS4_Q96HW7_44_SAALHIDLCK (UniProt Q96HW7) | -0.0901 | 0.0949
INTS8_Q75QN2_42_KPCPDPAPVQLIVQFLEQASKPSVNEQNQVQPPPDNKR (UniProt Q75QN2) | -0.241 | 0.143
INTS2_Q9H0H0_1186_DTGSMDPDVQLCHCIER (UniProt Q9H0H0) | 0.125 | 0.152
INTS3_Q68E01_498_EKFPEFCSSPSPPVEVK (UniProt Q68E01) | 0.0707 | -0.359
IPO9_Q96P70_639_ELSQIEACQGPMQMR (UniProt Q96P70) | 0.0381 | -0.0191

# Further results follow:

Target,probe-labelled cysteine peptide fold change (10 µM),probe-labelled cysteine peptide fold change (50 µM)
ITGAL_P20701_1154_GVPNGIPAEDSEQLASGQEAGDPGCLK (UniProt P20701),-0.125,-0.0169
ITPKB_P27987_873_CHEVIGSSLLFIHDKK (UniProt P27987),-0.0858,-0.358
IPO4_Q8TEX9_725+726_AAHEALGQFCCALHK (UniProt Q8TEX9),-0.205,-0.838
IPO4_Q8TEX9_42_APAALPALCDLLASAADPQIR (UniProt Q8TEX9),-0.0477,-0.0791
INSR_P06213_1083_GFTCHHVVR (UniProt P06213),0.1,0.329
IPO11_Q9UI26_894_DCMLMSHLEEPK (UniProt Q9UI26),-0.363,-0.0589
IPO4_Q8TEX9_95_ETEHCVSLSLAQLSATIFR (UniProt Q8TEX9),-0.203,-0.192
INTS6_Q9UL03_211_SYSVCSPR (UniProt Q9UL03),-0.0696,-0.133
IREB2_P48200_120_VHPACPTDLTVDHSLQIDFSK (UniProt P48200),-0.116,0.117
IPO7_O95373_477+484_ACWVLHYFCEVK (UniProt O95373),-0.102,0.383
IPO4_Q8TEX9_726_AAHEALGQFCCALHK (UniProt Q8TEX9),-0.0691,-0.471
INSR_P06213_674_QAEDSELFELDYCLK (UniProt P06213),0.0205,-0.147
IREB2_P48200_467_SDFQACLNEK (UniProt P48200),-0.164,0.111
IPO4_Q8TEX9_459_ACYALENFVENLGPK (UniProt Q8TEX9),0.15,-0.135
IREB2_P48200_604_QGDLVTCGILSGNK (UniProt P48200),-0.0239,0.162
IRF8_Q02556_299+306_VFCSGNAVVCK (UniProt Q02556),0.143,-0.622
ITPA_Q9BY32_33_FPCTLVAQK (UniProt Q9BY32),0.177,0.248
ITGAL_P20701_1154_GVPNGIPAEDSEQLASGQEAGDPGCLKPLHEK (UniProt P20701),-0.146,-0.415
IRF8_Q02556_410_MFPDICASHQR (UniProt Q02556),-0.309,-0.457
ISL2_Q96A47_114_DSVYHIECFR (UniProt Q96A47),0.0851,0.0295
IPO8_O15397_749_LLEVIILQCK (UniProt O15397),0.146,0.0209
ITGB1_P05556_636_FQGQTCEMCQTCLGVCAEHK (UniProt P05556),-0.0931,-0.0965
INTS14_Q96SY0_464_ECTLLPETAHPDAAFQLTHAAQQLK (UniProt Q96SY0),-0.0173,0.296
INTS3_Q68E01_843_EHPEALSCLLLQLR (UniProt Q68E01),-0.0584,-4.29e-05
IRF2BP2_Q7Z5L9_509_EVGGQGAGNTGGLEPVHPASLPDSSLATSAPLCCTLCHER (UniProt Q7Z5L9),-0.103,-0.221
ITGB2_P05107_286_CHLEDNLYKR (UniProt P05107),-0.146,-0.0878

Target,probe-labelled cysteine peptide fold change (10 µM),probe-labelled cysteine peptide fold change (50 µM)
ITGB1_P05556_574_SNGLICGGNGVCK (UniProt P05556),-0.173,-0.184
IPO4_Q8TEX9_566+574_AVGEPMRPLAEECCQLGLGLCDQVDDPDLRR (UniProt Q8TEX9),0.032,-1.04
IRF2BP1_Q8IU81_239_EQLLALSACAPFNVR (UniProt Q8IU81),0.0472,-0.0907
ISG20L2_Q9H9L3_295_KADCPENATMSLK (UniProt Q9H9L3),0.0343,-0.0204
IRAK4_Q9NWZ3_13_CLNVGLIR (UniProt Q9NWZ3),-0.0281,-0.494
IQGAP1_P46940_781_QIPAITCIQSQWR (UniProt P46940),0.0882,0.251
ITGB7_P26010_428_GQCNHVR (UniProt P26010),0.116,0.225
IQGAP3_Q86VI3_646_GVVPDCANGYQR (UniProt Q86VI3),-0.0746,-0.0296
IP6K1_Q92551_48_YDDHTVCK (UniProt Q92551),0.0811,0.0315
IRF8_Q02556_223_LVGQATTTCPEGCR (UniProt Q02556),0.189,0.153
ITGB2_P05107_420_VTATECIQEQSFVIR (UniProt P05107),-0.062,0.00506
ISG20L2_Q9H9L3_295_ADCPENATMSLK (UniProt Q9H9L3),0.0819,0.17
INTS10_Q9NVR2_387_TMSSDDEDCSAK (UniProt Q9NVR2),-0.32,-0.701
ITPA_Q9BY32_33_KLEEVVQILGDKFPCTLVAQK (UniProt Q9BY32),0.182,-0.712
ITGB2_P05107_536_LIYGQYCECDTINCER (UniProt P05107),-0.0384,-0.138
ITM2C_Q9NQX7_96_CGVLYEDSLSSQVR (UniProt Q9NQX7),-0.133,-0.592
IPO4_Q8TEX9_870_QGCTVAEK (UniProt Q8TEX9),0.0277,-0.207
INTS10_Q9NVR2_502_ALIQLATCHFALGEYR (UniProt Q9NVR2),0.0798,0.27
INTS7_Q9NVH2_42_LGEQCEAVVR (UniProt Q9NVH2),-0.174,0.125
IRF2BP1_Q8IU81_363_EPAPAEALPQQYPEPAPAALCGPPPR (UniProt Q8IU81),-0.287,0.257
ITPK1_Q13572_126_KIEAYMEDDRICSPPFMELTSLCGDDTMR (UniProt Q13572),-0.164,-0.196
ITPK1_Q13572_156_NGLTFPFICK (UniProt Q13572),0.14,-0.143
IRF2BP1_Q8IU81_207_NADCLAELNEAMR (UniProt Q8IU81),-0.315,-0.534
ITGAX_P20702_722_AHCENFNLLLPSCVEDSVTPITLR (UniProt P20702),0.111,0.368
